The values that follow come from the supplement of paper PMC3334620.

Over roughly 33,000 sequences, “E-score (-0.5 to 0.5)” has its median near -0.0059; the highest 2% begin near 0.26. This is one part of the list.

This assay deals with T1, Cin5 (UniProt P40917).
T1 sequence: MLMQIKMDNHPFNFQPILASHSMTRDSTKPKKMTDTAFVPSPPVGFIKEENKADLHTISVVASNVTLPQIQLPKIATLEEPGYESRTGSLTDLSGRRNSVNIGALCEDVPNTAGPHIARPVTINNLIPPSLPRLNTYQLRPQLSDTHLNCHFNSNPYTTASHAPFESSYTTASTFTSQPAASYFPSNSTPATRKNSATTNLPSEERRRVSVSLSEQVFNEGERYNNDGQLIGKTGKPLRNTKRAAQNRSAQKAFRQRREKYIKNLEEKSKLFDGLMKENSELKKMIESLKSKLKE
Put plainly: PBM E-score (8-mer binding enrichment) (E-score (-0.5 to 0.5)); higher = stronger / more preferred TF binding. Conditions: protein concentration: 100 nM; construct: GST-full length. The gist of the method: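 Each ungapped eight-base word and its reverse complement, pooled, received an E-score from the Universal PBM Analysis Suite. Underlying scans, normalised with masliner, recorded fluorescent anti-GST bound to GST-tagged yeast transcription factors. These were applied at about 100-200 nM to universal all-10-mer Agilent arrays double-stranded by primer extension.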
Turning to GGCTGGAA, the “PBM E-score” value is -0.165.

With ATGTGTCC, the “PBM E-score” value worked out at 0.156.

As for CGTTTTGC, the “PBM E-score” value is -0.0443.

As for GCTGGGGA, the “PBM E-score” value was -0.118.

With CTCGCACA, the “PBM E-score” value amounted to 0.0581.

Regarding CTGACAGC, the “PBM E-score” value was -0.0364.

Regarding CAAAAACC, the “PBM E-score” value amounted to 0.119.

Turning to GCATTACA, the “PBM E-score” value amounted to 0.167.

For the sequence CTATTCAC, the “PBM E-score” value was 0.0503.

In the case of AAAACCCG, the “PBM E-score” value is -0.0221.

For the sequence AAGAGTGT, the “PBM E-score” value is -0.135.

Regarding CAAGAAGA, the “PBM E-score” value turned out to be 0.059.

Turning to GGGTTAGA, the “PBM E-score” value is -0.138.

With GATAGGAC, the “PBM E-score” value was -0.108.

For CATCAACG, the “PBM E-score” value was -0.0328.

ACATCACT: the “PBM E-score” value worked out at 0.103.

As to TGGTACCA, the “PBM E-score” value was -0.0573.

In the case of ACGACATG, the “PBM E-score” value worked out at 0.0532.

For CAGCAATC, the “PBM E-score” value was 0.128.

Turning to ACCTACAT, the “PBM E-score” value worked out at 0.0732.

Consider GGGGCTAC, for which the “PBM E-score” value was -0.174.

In the case of ACGGTACT, the “PBM E-score” value is -0.0767.

As to GGATAGAC, the “PBM E-score” value is -0.0962.

As to CGCAAGAG, the “PBM E-score” value came to 0.0169.

CACGAACC: the “PBM E-score” value is -0.0882.

Turning to AACATGAT, the “PBM E-score” value worked out at 0.213.

For the sequence TAATCCTA, the “PBM E-score” value is 0.0386.

Turning to AAGCGATC, the “PBM E-score” value worked out at 0.138.

In the case of AAACACAC, the “PBM E-score” value was 0.115.

Take TATGGAAA: the “PBM E-score” value was 0.144.

As for CGCCGAAA, the “PBM E-score” value was -0.0208.

On to CGGACATC, for which the “PBM E-score” value is -0.181.

On to AGTGGATC, for which the “PBM E-score” value turned out to be 0.0279.

With ATATGGCG, the “PBM E-score” value was 0.0981.

GGTCAAGA: the “PBM E-score” value is -0.0334.

As for CGCGGACC, the “PBM E-score” value is -0.0694.

Take CCTACTAG: the “PBM E-score” value was 0.0186.

In the case of CAGGATCA, the “PBM E-score” value was -0.0583.

Turning to CAGGGTAA, the “PBM E-score” value came to 0.0479.

As to AAAATAAC, the “PBM E-score” value came out at 0.0095.

In the case of AGCACACG, the “PBM E-score” value was -0.156.

Consider CACGTGAA, for which the “PBM E-score” value came to 0.0749.

AGCCCAAT: the “PBM E-score” value was determined as 0.033.

In the case of CCACTGGG, the “PBM E-score” value is -0.186.

Take CCTTTGTA: the “PBM E-score” value was -0.192.

As for AGGCAATC, the “PBM E-score” value was -0.0506.

As for ACTTTTCA, the “PBM E-score” value is 0.0559.

For the sequence ACGAATGC, the “PBM E-score” value stood at 0.125.

As for GTCGGCAC, the “PBM E-score” value was -0.12.

As for AAGTACGT, the “PBM E-score” value is 0.103.

Consider CGGGATCA, for which the “PBM E-score” value was -0.0535.

Take ATCGCTTG: the “PBM E-score” value is -0.121.

GCCGAGAC: the “PBM E-score” value is -0.0722.

Take GCACTCCA: the “PBM E-score” value was -0.111.

With ACTTTCAG, the “PBM E-score” value is -0.0983.

On to CACTCCGC, for which the “PBM E-score” value is 0.0904.

In the case of CATATCTC, the “PBM E-score” value was found to be 0.124.

On to ACGATCAT, for which the “PBM E-score” value came out at 0.0555.

Turning to GGTACGAC, the “PBM E-score” value was -0.169.

For the sequence CATCCCAA, the “PBM E-score” value stood at 0.0478.

Consider CAGACAGA, for which the “PBM E-score” value worked out at 0.0973.

For the sequence GGCTACTA, the “PBM E-score” value came out at 0.0982.

CTCGATGC: the “PBM E-score” value came to 0.11.

Take CCACAGAA: the “PBM E-score” value is -0.0301.

With GAAAACGC, the “PBM E-score” value was -0.153.

Regarding ATTGGGTA, the “PBM E-score” value came out at 0.0825.

Regarding AATCGCAC, the “PBM E-score” value was -0.0212.

Take AACACGAT: the “PBM E-score” value was 0.16.

Take ATTTATTC: the “PBM E-score” value amounted to 0.119.

On to GGTACATA, for which the “PBM E-score” value was found to be 0.114.

On to GATCGATA, for which the “PBM E-score” value was 0.147.

For ACTAGAAC, the “PBM E-score” value amounted to 0.0319.

Turning to ACTTGCCA, the “PBM E-score” value was -0.036.

For the sequence CTCATAGC, the “PBM E-score” value was -0.189.

In the case of AGGGGGAT, the “PBM E-score” value is -0.278.

For GAATTTTA, the “PBM E-score” value was found to be 0.121.

Consider ATGTGAGG, for which the “PBM E-score” value is 0.0534.

Consider ATTATAGA, for which the “PBM E-score” value turned out to be 0.123.

As for CACTTAGG, the “PBM E-score” value was -0.226.

Consider CGGTTACG, for which the “PBM E-score” value was determined as 0.00513.

As to CAGGGGAG, the “PBM E-score” value was -0.212.

As to CTCTTCGC, the “PBM E-score” value is -0.051.

As for AGGGTTCC, the “PBM E-score” value was -0.0765.

As to ACAATAAC, the “PBM E-score” value is 0.143.

Turning to CCGGCGAC, the “PBM E-score” value was -0.0986.

With GCAACTCA, the “PBM E-score” value is 0.00079.
